Measurements taken from patent US20050118683A1.
No constants are given. Whether binding was seen depends on the method and setting. Some binding calls cover weakened binding; strength is not graded here.

By UniProt entry, the sequences of proteins in these tests, tags left out. Where a name states a change or a piece, a line headed by the entry shows the natural chain unless it says otherwise.
UniProt P35225: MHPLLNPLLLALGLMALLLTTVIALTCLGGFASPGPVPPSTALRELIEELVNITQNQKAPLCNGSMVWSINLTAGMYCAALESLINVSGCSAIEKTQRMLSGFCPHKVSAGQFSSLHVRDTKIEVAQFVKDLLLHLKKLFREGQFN

Biological target: hIL-13Rα2.Fc fusion polypeptide (soluble human IL-13Rα2 extracellular domain fused to hinge-CH2-CH3 of human Ig γ-1 heavy chain) (human)
Assay: co-expressed complex held on a Protein A column, MgCl2 wash, SEC-HPLC of dissociated IL-13

binding	Substance
binds	R127D human IL-13 (from UniProt P35225 35-146) (ligand)
binds	R127P human IL-13 (from UniProt P35225 35-146) (ligand)
